Data taken from paper PMC7819943, “Rice protein-binding microarrays: a tool to detect cis-acting elements near promoter regions in rice”.
Some of the results follow.

Sequences of proteins named here, by UniProt entry; tags and fusion partners are left off.
UniProt Q0JBA9, entry or part of it: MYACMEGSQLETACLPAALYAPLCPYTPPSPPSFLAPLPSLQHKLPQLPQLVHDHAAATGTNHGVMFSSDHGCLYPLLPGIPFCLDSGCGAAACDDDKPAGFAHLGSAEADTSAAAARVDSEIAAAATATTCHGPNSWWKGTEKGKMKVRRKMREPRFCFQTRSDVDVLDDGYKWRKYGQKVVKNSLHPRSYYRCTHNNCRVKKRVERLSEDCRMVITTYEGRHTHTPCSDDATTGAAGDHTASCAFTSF

Target: OsWRKY34 (Oryza sativa, UniProt Q0JBA9 1-250)
Assay: protein-binding microarray (RPBM); PBS, 2% BSA, 51.3 ng/ul salmon testes DNA, 50 uM zinc acetate, 200 nM TF, 25 C, 1 h; high values mean tight binding
Details: protein: recombinant; tags: N-terminal polyhistidine and DsRed monomer fusion (pET32a); label: CyDye5-dUTP incorporated in the synthesized complementary strand; 3' TTTTT single-stranded linker to array surface; dsDNA, one strand shown
Procedure, shortened: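 Using Ni–NTA, transcription factors fused N-terminally to polyhistidine and DsRed were purified after expression in E. coli BL21-CodonPlus. These were incubated at 200 nM with a blocked, double-stranded custom Agilent array for 1 h at 25 °C in a buffer containing 50 µM zinc acetate, and the array was washed. The binding signal is per-feature fluorescence intensity (arbitrary units) on an Axon 4000B scanner.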

Row | Sequence | binding signal
1 | GAGACGAATCTGTTAAGCCTAATTTAGTGCAGCACTTATACGGAGTCACCTAGTGCAG | 8780 fluorescence intensity (a.u.)
2 | TTTTTCTAACTAACAGTTCAGTTATCTGATTGTACTGAATCGGAGTCACCTAGTGCAG | 8290 fluorescence intensity (a.u.)
3 | GCATTGATAAGTATTTCTTCCGTTTCATATTATAAGTCGTCGGAGTCACCTAGTGCAG | 10200 fluorescence intensity (a.u.)
4 | CACTTTCAACCCATATCTACCGTCCGTCTCCATCTGACACCGGAGTCACCTAGTGCAG | 8990 fluorescence intensity (a.u.)
5 | AACGGTCATTCCTATATTTTTCCTGTGTTTTGCAATCCTCCGGAGTCACCTAGTGCAG | 8070 fluorescence intensity (a.u.)
6 | TCTTGCCTCGCGCCGCCTCCGGCCGACCGCCGCGCTCCACCGGAGTCACCTAGTGCAG | 8360 fluorescence intensity (a.u.)
7 | GTACTAGATCTTTCATCAGTTTTGTCGGTTTACGCTGTATCGGAGTCACCTAGTGCAG | 11700 fluorescence intensity (a.u.)
8 | TACCAACACAACTACACACTTGTTTACCTAGCTAGATCATCGGAGTCACCTAGTGCAG | 8710 fluorescence intensity (a.u.)
9 | ACTGTACCTGAGAGTGATTTCCCAACCATTTTTGTTTGACCGGAGTCACCTAGTGCAG | 9080 fluorescence intensity (a.u.)
10 | ACCTCAAAAATCACGTGTTCTTCGTGCCCAACCGCACCGCCGGAGTCACCTAGTGCAG | 8620 fluorescence intensity (a.u.)
11 | CTCTCTCTCTCTCTCTCTCTCTCTCTCTCTCTCTCCATCCCGGAGTCACCTAGTGCAG | 13300 fluorescence intensity (a.u.)
12 | CACCACACGTCCAGTACCTTCCACGGTCACACACAGAATTCGGAGTCACCTAGTGCAG | 8440 fluorescence intensity (a.u.)
13 | CAACCACCTCATCATCATCATTATAATCAAGATCATTACCCGGAGTCACCTAGTGCAG | 9830 fluorescence intensity (a.u.)
14 | CACCGTCTCCCGCTCCGGCCGCTCCTCCTACTCCGCCGGTCGGAGTCACCTAGTGCAG | 8640 fluorescence intensity (a.u.)
15 | CCAGCACTGTCAGCTTTCCGCCCCTAGCACCGGCGCCGGTCGGAGTCACCTAGTGCAG | 10300 fluorescence intensity (a.u.)
16 | ATAATTTATACACAACACACACACACACACACATATATATCGGAGTCACCTAGTGCAG | 8570 fluorescence intensity (a.u.)
17 | TCTCACCCTAGCCGCCGCCGCCTCCTCCTCCTCTCGCCTTCGGAGTCACCTAGTGCAG | 10500 fluorescence intensity (a.u.)
18 | ACTTGTTTATATGATGGATGTATTTTTCAGCCGGCCAAACCGGAGTCACCTAGTGCAG | 9110 fluorescence intensity (a.u.)
19 | AGTGATTATTGCCGGTCGGCGCCCATAGTTTTTTCCCGCACGGAGTCACCTAGTGCAG | 10600 fluorescence intensity (a.u.)
20 | AAATATTTGATGGCAGCAATTGGTTTTTTTTTTCATATTTCGGAGTCACCTAGTGCAG | 8280 fluorescence intensity (a.u.)
21 | CGGTCTTTGCGTTTCTGTTTATGTATTCTGACCTTATATTCGGAGTCACCTAGTGCAG | 10300 fluorescence intensity (a.u.)

Row | Sequence | binding signal
22 | ATGTGTGTGTTATTATGGTCCCGTTCGAAAGTGATGATCACGGAGTCACCTAGTGCAG | 9390 fluorescence intensity (a.u.)
23 | TTACTATATTATGGGACAGAGGGGTATGTTTTTTTTTAAACGGAGTCACCTAGTGCAG | 8180 fluorescence intensity (a.u.)
24 | ATTTGGGTTCGAAGTCTCACCCCTTGTAATTATTTGATATCGGAGTCACCTAGTGCAG | 8400 fluorescence intensity (a.u.)
25 | GTTTGAGGGTTTTTTGTTGGTTTAGAATCATCTTTTTCTTCGGAGTCACCTAGTGCAG | 9210 fluorescence intensity (a.u.)
26 | TCCATATCCGATCCCTTCTCGATCATCGCTCATCATCACACGGAGTCACCTAGTGCAG | 9010 fluorescence intensity (a.u.)
27 | GGACCCACCTGCCGAACCAGCACGCATCGCGTCTCGCACCCGGAGTCACCTAGTGCAG | 8590 fluorescence intensity (a.u.)
28 | TTTTCTTCTTTCTTTCTCTCTGTCTTGTTCAATTTTTTCTCGGAGTCACCTAGTGCAG | 11800 fluorescence intensity (a.u.)
29 | TACTGAGGTTTTAGAATGGGTTTTTGTATCTTAGGGAAATCGGAGTCACCTAGTGCAG | 8280 fluorescence intensity (a.u.)
30 | GAGATATCGTTGACTTTTAGCATAACATAGACCATTCAGCCGGAGTCACCTAGTGCAG | 18300 fluorescence intensity (a.u.)
31 | TAAACATGTGGCTGACTTTCTTTTTTAAAATTTTAATCCACGGAGTCACCTAGTGCAG | 9460 fluorescence intensity (a.u.)
32 | TCCTTTTCCATCACATCAACCTGTCATACACACACAACTTCGGAGTCACCTAGTGCAG | 8150 fluorescence intensity (a.u.)
33 | TACCGCCGCGGGCGACTCCGGCGAGGAGGGGCGAGGGGCGCGGAGTCACCTAGTGCAG | 8290 fluorescence intensity (a.u.)
34 | CCGGCGGCGCGTTCTACCTCCTCTACCGGCCGCACCGCCCCGGAGTCACCTAGTGCAG | 8440 fluorescence intensity (a.u.)
35 | CCTCTGCATCTGTCCTCCATGCGCGGCCAAGCTCGCCGGCCGGAGTCACCTAGTGCAG | 9880 fluorescence intensity (a.u.)
36 | ACATGTGGATCCCACGATATTTTTTTGTGTGTGAATGACACGGAGTCACCTAGTGCAG | 8820 fluorescence intensity (a.u.)
37 | GTAACCTCCGACTAGGAATTCCCCGTTGCCATCTCCTCCGCGGAGTCACCTAGTGCAG | 8450 fluorescence intensity (a.u.)
38 | ACAAGTCGGCAAGTGGTTTGTGTGATTATGTTTGTTACTTCGGAGTCACCTAGTGCAG | 10400 fluorescence intensity (a.u.)
39 | GGCGCTTGGGTTTTGTTGGAGTCTTATCAAAGTTTTGAACCGGAGTCACCTAGTGCAG | 9650 fluorescence intensity (a.u.)
40 | TGTTTGGGTTCTGTTGTGCTCCCTTTTCTTCTCCTAACGCCGGAGTCACCTAGTGCAG | 9720 fluorescence intensity (a.u.)
41 | TGGATACTTTTCTTTTGTACCATTACTCTCTGTGTTCTAACGGAGTCACCTAGTGCAG | 8410 fluorescence intensity (a.u.)
42 | TGGATTCTTTGGATTGGGGCTACTTAAATGCGGGGAAGAACGGAGTCACCTAGTGCAG | 9370 fluorescence intensity (a.u.)

Pulled one by one from the list above, two records:
Row | Sequence | binding signal
19 | AGTGATTATTGCCGGTCGGCGCCCATAGTTTTTTCCCGCACGGAGTCACCTAGTGCAG | 10600 fluorescence intensity (a.u.)
14 | CACCGTCTCCCGCTCCGGCCGCTCCTCCTACTCCGCCGGTCGGAGTCACCTAGTGCAG | 8640 fluorescence intensity (a.u.)
